No constants are given. Whether binding was seen depends on the method and setting. Binding seen in cells or lysates may run through a third protein. Where a sequence is shown, tags or fusion partners need not be part of it.

The assay has as its target S381A-FLAG (UniProt P46937). The assay is described as follows: co-IP; HCT116 co-transfected with DUSP10-V5 and a YAP-FLAG plasmid. Cells were cross-linked with 2 mM DSP for 30 min, then lysed in RIPA buffer. Anti-FLAG (or normal IgG) and protein A/G agarose at 4 °C, then immunoblot.

B1: DUSP10-WT-V5 (enzyme, UniProt Q9Y6W6 1-482)
chain: MPPSPLDDRVVVALSRPVRPQDLNLCLDSSYLGSANPGSNSHPPVIATTVVSLKAANLTYMPSSSGSARSLNCGCSSASCCTVATYDKDNQAQTQAIAAGTTTTAIGTSTTCPANQMVNNNENTGSLSPSSGVGSPVSGTPKQLASIKIIYPNDLAKKMTKCSKSHLPSQGPVIIDCRPFMEYNKSHIQGAVHINCADKISRRRLQQGKITVLDLISCREGKDSFKRIFSKEIIVYDENTNEPSRVMPSQPLHIVLESLKREGKEPLVLKGGLSSFKQNHENLCDNSLQLQECREVGGGASAASSLLPQPIPTTPDIENAELTPILPFLFLGNEQDAQDLDTMQRLNIGYVINVTTHLPLYHYEKGLFNYKRLPATDSNKQNLRQYFEEAFEFIEEAHQCGKGLLIHCQAGVSRSATIVIAYLMKHTRMTMTDAYKFVKGKRPIISPNLNFMGQLLEFEEDLNNGVTPRILTPKLMGVETVV
For the molecule B1, the binding result is listed as “no binding”.
